Data published in PMC9590482.

Chains of the proteins cited; added tags and fusions are not shown. Lines headed by an entry give the natural chain unless they say otherwise; changes in a name come on top.
UniProt O82256: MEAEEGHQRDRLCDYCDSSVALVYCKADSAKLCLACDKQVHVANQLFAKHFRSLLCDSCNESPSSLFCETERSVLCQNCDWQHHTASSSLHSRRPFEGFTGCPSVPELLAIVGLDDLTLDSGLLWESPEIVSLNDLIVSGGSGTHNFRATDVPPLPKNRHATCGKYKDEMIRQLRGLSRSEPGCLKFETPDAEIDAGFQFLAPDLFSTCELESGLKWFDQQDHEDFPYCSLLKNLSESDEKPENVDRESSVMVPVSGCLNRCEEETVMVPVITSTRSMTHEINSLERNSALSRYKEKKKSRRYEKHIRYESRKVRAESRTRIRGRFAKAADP
UniProt P14713: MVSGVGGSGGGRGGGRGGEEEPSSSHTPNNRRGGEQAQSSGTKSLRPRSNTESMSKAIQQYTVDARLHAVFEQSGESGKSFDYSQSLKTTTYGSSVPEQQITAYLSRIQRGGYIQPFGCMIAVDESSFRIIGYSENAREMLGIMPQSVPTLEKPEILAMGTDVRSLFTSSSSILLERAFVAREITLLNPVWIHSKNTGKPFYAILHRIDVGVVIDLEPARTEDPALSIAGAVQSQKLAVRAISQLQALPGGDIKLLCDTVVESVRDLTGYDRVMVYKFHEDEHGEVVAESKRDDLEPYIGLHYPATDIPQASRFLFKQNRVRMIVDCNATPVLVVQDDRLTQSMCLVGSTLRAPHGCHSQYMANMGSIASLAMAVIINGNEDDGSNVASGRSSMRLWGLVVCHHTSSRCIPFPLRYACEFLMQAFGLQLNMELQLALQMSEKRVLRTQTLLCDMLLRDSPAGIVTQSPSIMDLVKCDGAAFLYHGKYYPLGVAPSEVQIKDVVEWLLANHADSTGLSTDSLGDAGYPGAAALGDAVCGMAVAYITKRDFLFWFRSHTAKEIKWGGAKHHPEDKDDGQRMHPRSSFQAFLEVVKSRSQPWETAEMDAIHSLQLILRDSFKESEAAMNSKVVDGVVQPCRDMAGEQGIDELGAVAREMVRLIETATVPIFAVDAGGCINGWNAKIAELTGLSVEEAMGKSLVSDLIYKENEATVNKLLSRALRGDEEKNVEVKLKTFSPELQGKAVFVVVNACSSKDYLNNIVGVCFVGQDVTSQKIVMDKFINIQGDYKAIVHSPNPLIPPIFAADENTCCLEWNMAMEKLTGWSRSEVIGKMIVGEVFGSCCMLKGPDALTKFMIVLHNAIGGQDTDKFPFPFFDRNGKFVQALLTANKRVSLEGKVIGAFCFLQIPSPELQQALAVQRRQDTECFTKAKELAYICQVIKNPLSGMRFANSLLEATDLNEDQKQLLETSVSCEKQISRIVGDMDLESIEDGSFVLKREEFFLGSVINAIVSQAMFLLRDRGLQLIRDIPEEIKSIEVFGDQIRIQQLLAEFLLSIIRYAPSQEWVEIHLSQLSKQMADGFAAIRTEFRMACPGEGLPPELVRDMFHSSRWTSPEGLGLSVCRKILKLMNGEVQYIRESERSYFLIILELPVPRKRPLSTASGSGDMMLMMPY

How the values were obtained:
[1] = biological target: myc-BBX11 (Arabidopsis) (UniProt O82256); assay: co-IP; 35S:myc-BBX11 alone or together with 35S:phyB-Flag or 35S:PIF4-Flag transiently expressed in Nicotiana benthamiana leaves (long days, 3 d); extracts incubated with anti-myc antibodies on Protein-A Sepharose, 3 h at 4 °C; immunoblot with anti-myc and anti-Flag
[2] = biological target: phyB-nLUC (Arabidopsis) (UniProt P14713); assay: split reporter; firefly luciferase complementation imaging (LCI); phyB-nLUC and cLUC-BBX11 co-expressed in Nicotiana benthamiana leaves; 1 d darkness, then red light (94 μmol/m^2/s) for 2 d
[3] = biological target: phyB-nLUC (Arabidopsis) (UniProt P14713); assay: split reporter; firefly luciferase complementation imaging (LCI); phyB-nLUC and cLUC-BBX11 co-expressed in Nicotiana benthamiana leaves; 1 d darkness, then kept in darkness for 2 d more

binding [1] | binding [2] | Substance | binding [3]
binds |  | phyB-Flag (from UniProt P14713 1-1172) | 
 | binds | cLUC-BBX11 (from UniProt O82256) | no binding (only leaves kept in darkness)

These are yes or no findings as the source states them, for the method shown. Binding seen in cells or lysates may run through a third protein. For part of these data: A result given as binding can be weak or reduced; the word gives no strength.
